“Also recorded” adds a separate entry of the source. Read-outs that look alike come from different tables or passages of the source. At least one peptide structure holds a part that was inferred or is arguable (an end, a ring closure or a residue). Ends that are not written are not given here.
How the values were obtained:
oral biofilms [1] = experiment: In vitro plaque assay, viable counts of biofilms on saliva-coated HA disks; format: cell-based, human salivary bacteria
[2] = format: physicochemical; details: in vitro, gums with 5, 10 and 20 mg KSL, artificial saliva 37°C
Procedure: The chewing gum formulations were prepared following a procedure described previously. The gum base was heated at a temperature between 50 and 60°C for melting. When the gum base was of the proper fluid consistency, the KSL was added as a fine powder along with the other components. The temperature was kept constant while mixing the components with the gum base in a mortar. After mixing, the homogenous chewing gum mixture was extruded, cut into squares of approximate shape and size and hardened at room temperature overnight. The composition of the gum was as follows: 550 mg of gum base, 420 mg of sorbitol, 10 mg of mannitol, 10 mg of saccharin, and 10, 20 or 30 mg of KSL (total weight: approximately 1 g). In vitro release study of KSL from chewing gums was carried out using an in vitro chewing release apparatus consisting of two modules (AB FIA, Lund, Sweden) (Fig. 1). Each module consists of a thermostatted glass cell in which two vertically oriented pistons holding an upper and a lower chewing plate are mounted. The cells were filled with 40 ml of artificial saliva and the chewing gum was loaded onto the lower chewing surface. The chewing procedure consisted of up and down strokes of the lower surface in combination with a twisting movement of the upper surface; this action provides mastication of the chewing gum and agitation of the test medium. The temperature of the test medium was controlled at 37°C and the chew frequency was 50 ± 2 strokes per min. At predetermined time intervals, 400 µl of supernatant were removed. The dissolution medium was replaced with fresh artificial saliva after each sampling. The released amount of KSL was determined by RP-HPLC.

oral biofilms [3] = experiment: Dual flow cell system, oral biofilm development observed by DIC microscopy; format: cell-based, human salivary bacteria; details: for effect on biofilm formation, pulsed treatment: 50 µg/ml, 30 min at 0.2 ml/min every 2 h; for effect on oral biofilm development: continuous perfusion, saliva-conditioned Ge surfaces
[4] = Stability study of KSL in buffer solutions (RP-HPLC); format: physicochemical; details: 25 to 55°C
oral biofilms [5] = experiment: Live/dead staining of treated biofilms, confocal laser scanning microscopy; format: cell-based, human salivary bacteria; details: biofilms on saliva-coated HA surfaces, BacLight, compared to control
[6] = Interaction with hydroxyapatite (HA) discs in artificial saliva; format: physicochemical

KKVVFKVKFK-NH2 [KSL, Lys-Lys-Val-Val-Phe-Lys-Val-Lys-Phe-Lys-NH2]
reduction of viability, disrupted biofilms, vs dH2O-treated control cells (oral biofilms [1]; 45 h-old biofilms disrupted by sonication, KSL 200 µg/ml, 30 min, 37°C): 1.8 log
reduction of viability, intact 66 h-old oral biofilms, compared to water treatment (oral biofilms [1]; KSL 200 µg/ml, benzalkonium chloride 0.001%, alone or combined, chlorhexidine positive control): no significant reductions in viability; also recorded: less effect on the viability
reduction of viable counts, intact biofilms (oral biofilms [1]; intact 45-h-old biofilms, KSL 200 µg/ml 30 min at 37°C, chlorhexidine 0.12% 1 min): slight reductions in CFU; also recorded: small reduction of viable counts
release of KSL from three gum formulations ([2]; at 10 min): 48-55%
release of KSL from three gum formulations ([2]; at 20 min): 65-72%
release of KSL from three gum formulations ([2]; at 30 min): 71-82%
KSL released, total ([2]; for 60 minutes): 78-88%
effect on biofilm formation, pulsed treatment (oral biofilms [3]; started 4 h after inoculation): greatly inhibited; also recorded: inhibited biofilm formation
effect on biofilm formation, pulsed treatment (oral biofilms [3]; started 6 h after inoculation): but not 6 h; also recorded: failed to inhibit the development of biofilm structures
effect on oral biofilm development (oral biofilms [3]; KSL at 10 µg/ml): partially effective in inhibiting biofilm formation
effect on oral biofilm development (oral biofilms [3]; KSL at 50 µg/ml): prevents biofilm formation; also recorded: disrupted biofilm development
Activation energies (Ea) ([4]; pH 4, from slope of Arrhenius plot): 6.7 kcal/mol
Activation energies (Ea) ([4]; pH 7.4, from slope of Arrhenius plot): 13.6 kcal/mol
Activation energies (Ea) ([4]; pH 9, from slope of Arrhenius plot): 17.9 kcal/mol
viability of biofilm cells by live/dead staining (oral biofilms [5]): less impact on the viability
affinity to HA discs pretreated with human saliva ([6]; HA discs soaked in human saliva 2 h): high affinity
KSL adsorbed to 8 discs ([6]; KSL 0.5 mg/ml, 8 untreated HA discs, artificial saliva, 37°C): approximately 20%

Source: patent EP1951194B1, “ANTIMICROBIAL DECAPEPTIDE COMPOSITION FOR ORAL HYGIENE” (U.S. Government, as represented by the Secretary of the Army, priority 2005, dated 2018)
